These are yes or no findings as the source states them, for the method shown. Binding seen in cells or lysates may run through a third protein. Some binding calls cover weakened binding; strength is not graded here. For part of these data: Where a sequence is shown, tags or fusion partners need not be part of it.
Experiments:
Test in all cases: co-IP; HEK293T cells transiently co-transfected with FLAG-tagged proteins and GFP-tagged USP7 (wild-type and mutants), immunoprecipitation, immunoblotting; which tag was precipitated is not told
FLAG-tagged MCMBP = biological target: T1, FLAG-tagged MCMBP (UniProt Q9BTE3)
T1 sequence: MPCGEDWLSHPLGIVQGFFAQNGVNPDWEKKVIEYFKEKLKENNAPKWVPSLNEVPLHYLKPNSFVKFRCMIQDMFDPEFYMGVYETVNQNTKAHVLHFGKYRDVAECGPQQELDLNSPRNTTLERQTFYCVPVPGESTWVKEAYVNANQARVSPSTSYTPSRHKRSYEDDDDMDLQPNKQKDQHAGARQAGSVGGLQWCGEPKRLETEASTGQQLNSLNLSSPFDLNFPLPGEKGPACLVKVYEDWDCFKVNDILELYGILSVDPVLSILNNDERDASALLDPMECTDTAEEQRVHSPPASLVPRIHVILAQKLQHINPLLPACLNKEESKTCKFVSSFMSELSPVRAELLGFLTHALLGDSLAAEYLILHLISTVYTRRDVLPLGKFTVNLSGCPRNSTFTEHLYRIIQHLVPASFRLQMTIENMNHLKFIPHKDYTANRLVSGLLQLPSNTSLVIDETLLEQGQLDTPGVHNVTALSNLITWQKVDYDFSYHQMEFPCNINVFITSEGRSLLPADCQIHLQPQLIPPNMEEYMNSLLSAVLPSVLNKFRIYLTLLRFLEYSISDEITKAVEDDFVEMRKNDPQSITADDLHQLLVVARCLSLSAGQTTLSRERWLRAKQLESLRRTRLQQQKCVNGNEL

Sequences of proteins named here, by UniProt entry; tags and fusion partners are left off. A change or cut given only in a name is not applied to a line headed by its entry.
UniProt Q2YD98: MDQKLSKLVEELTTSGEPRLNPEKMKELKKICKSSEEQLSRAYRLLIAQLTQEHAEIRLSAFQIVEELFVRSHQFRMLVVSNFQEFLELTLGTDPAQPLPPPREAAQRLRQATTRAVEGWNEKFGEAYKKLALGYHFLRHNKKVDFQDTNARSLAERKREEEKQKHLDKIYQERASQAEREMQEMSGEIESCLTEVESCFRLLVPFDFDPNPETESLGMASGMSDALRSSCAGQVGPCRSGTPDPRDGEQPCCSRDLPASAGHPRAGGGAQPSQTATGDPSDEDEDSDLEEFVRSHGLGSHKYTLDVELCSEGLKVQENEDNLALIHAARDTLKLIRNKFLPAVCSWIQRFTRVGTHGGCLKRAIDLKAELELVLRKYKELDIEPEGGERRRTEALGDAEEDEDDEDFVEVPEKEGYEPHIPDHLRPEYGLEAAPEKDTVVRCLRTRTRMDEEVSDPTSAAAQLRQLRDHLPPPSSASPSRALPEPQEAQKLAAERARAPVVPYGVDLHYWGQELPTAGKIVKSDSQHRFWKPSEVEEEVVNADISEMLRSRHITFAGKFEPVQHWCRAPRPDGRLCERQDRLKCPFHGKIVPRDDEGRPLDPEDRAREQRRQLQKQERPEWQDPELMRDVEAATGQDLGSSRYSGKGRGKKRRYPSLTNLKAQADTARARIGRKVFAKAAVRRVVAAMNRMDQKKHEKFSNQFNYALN
UniProt P26358: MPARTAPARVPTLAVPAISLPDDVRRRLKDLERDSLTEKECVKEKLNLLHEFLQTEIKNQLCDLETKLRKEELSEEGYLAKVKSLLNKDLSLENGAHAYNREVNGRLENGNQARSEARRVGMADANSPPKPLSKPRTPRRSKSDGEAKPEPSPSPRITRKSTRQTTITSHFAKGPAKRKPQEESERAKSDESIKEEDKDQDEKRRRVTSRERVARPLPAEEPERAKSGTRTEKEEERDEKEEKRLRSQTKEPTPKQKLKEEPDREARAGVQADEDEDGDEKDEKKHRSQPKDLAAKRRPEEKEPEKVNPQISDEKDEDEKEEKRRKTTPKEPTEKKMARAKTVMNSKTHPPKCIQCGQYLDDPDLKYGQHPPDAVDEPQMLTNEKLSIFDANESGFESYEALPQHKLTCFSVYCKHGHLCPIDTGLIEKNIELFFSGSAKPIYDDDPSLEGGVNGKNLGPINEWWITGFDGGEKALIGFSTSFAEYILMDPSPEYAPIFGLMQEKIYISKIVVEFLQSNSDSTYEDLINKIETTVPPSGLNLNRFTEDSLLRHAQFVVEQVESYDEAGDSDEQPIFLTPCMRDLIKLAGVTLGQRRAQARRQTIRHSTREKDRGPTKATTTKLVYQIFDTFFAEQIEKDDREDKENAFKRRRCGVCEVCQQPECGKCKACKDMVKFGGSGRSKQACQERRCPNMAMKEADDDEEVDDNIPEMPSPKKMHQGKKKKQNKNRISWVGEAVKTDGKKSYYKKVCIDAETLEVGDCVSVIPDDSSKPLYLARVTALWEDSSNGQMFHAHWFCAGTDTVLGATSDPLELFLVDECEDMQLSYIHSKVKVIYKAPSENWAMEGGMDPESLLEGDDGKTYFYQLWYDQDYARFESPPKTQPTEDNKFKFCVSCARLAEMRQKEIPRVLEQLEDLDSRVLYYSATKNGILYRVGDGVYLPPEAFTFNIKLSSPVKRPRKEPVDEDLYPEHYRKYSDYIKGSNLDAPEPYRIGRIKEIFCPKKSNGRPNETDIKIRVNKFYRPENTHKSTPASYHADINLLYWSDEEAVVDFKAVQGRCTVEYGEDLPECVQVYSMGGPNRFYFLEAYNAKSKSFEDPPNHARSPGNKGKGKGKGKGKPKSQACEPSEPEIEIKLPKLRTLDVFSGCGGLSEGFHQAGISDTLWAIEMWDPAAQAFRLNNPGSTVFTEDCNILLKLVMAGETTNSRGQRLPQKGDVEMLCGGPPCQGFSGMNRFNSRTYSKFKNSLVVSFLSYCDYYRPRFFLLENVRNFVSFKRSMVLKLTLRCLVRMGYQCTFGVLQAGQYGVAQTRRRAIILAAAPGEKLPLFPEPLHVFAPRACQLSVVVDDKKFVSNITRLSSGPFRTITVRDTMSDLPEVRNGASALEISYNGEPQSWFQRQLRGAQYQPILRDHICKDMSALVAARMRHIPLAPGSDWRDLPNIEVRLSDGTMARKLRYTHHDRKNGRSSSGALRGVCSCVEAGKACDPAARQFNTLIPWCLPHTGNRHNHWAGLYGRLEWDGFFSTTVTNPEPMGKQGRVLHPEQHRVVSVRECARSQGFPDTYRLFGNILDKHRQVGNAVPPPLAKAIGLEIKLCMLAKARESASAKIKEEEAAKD
UniProt Q93009: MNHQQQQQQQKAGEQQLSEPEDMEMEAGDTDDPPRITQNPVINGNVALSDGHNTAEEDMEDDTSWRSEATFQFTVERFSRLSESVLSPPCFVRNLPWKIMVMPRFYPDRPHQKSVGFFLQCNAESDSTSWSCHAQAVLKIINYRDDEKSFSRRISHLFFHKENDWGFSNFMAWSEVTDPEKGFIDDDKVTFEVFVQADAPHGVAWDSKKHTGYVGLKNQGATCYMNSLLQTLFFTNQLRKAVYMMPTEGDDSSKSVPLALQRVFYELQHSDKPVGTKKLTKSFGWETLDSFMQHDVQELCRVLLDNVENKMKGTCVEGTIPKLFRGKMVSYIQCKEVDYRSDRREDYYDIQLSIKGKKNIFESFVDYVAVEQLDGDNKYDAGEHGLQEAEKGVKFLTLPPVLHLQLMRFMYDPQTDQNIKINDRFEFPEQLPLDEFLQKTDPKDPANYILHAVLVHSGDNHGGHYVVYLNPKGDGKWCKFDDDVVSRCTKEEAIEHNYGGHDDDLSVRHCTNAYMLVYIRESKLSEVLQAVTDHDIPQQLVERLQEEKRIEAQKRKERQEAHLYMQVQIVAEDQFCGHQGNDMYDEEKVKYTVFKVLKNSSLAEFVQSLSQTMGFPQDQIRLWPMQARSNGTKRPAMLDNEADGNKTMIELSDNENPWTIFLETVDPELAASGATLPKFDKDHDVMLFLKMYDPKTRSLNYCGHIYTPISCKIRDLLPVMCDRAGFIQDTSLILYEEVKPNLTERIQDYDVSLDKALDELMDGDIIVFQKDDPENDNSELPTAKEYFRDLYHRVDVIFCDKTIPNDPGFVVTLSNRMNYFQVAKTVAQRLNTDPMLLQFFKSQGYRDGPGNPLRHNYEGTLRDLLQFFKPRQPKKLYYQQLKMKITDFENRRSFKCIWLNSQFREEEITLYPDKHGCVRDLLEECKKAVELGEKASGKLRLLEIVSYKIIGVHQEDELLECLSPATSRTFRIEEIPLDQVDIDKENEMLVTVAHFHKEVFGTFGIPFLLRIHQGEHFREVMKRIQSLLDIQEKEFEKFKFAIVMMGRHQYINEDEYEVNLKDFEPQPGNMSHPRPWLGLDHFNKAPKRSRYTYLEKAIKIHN

FLAG-tagged WDR21a = biological target: T2, FLAG-tagged WDR21a (UniProt Q8WV16)
T2 sequence: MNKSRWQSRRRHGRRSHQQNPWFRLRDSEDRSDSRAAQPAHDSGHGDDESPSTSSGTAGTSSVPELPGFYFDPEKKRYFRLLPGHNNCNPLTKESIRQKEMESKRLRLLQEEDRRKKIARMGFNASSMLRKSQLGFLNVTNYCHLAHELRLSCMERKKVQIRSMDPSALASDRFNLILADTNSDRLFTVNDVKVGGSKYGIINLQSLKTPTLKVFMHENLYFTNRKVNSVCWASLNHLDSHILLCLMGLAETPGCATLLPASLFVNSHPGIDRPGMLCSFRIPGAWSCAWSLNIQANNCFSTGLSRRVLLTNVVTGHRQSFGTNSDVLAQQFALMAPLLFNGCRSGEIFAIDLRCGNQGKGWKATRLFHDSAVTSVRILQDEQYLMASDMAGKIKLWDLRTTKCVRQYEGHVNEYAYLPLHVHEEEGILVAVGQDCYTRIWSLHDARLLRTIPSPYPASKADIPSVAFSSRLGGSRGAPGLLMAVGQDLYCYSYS

FLAG-tagged UVSSA = FLAG-tagged UVSSA (UniProt Q2YD98)
FLAG-tagged MCM4 = biological target: T3, FLAG-tagged MCM4 (UniProt P33991)
T3 sequence: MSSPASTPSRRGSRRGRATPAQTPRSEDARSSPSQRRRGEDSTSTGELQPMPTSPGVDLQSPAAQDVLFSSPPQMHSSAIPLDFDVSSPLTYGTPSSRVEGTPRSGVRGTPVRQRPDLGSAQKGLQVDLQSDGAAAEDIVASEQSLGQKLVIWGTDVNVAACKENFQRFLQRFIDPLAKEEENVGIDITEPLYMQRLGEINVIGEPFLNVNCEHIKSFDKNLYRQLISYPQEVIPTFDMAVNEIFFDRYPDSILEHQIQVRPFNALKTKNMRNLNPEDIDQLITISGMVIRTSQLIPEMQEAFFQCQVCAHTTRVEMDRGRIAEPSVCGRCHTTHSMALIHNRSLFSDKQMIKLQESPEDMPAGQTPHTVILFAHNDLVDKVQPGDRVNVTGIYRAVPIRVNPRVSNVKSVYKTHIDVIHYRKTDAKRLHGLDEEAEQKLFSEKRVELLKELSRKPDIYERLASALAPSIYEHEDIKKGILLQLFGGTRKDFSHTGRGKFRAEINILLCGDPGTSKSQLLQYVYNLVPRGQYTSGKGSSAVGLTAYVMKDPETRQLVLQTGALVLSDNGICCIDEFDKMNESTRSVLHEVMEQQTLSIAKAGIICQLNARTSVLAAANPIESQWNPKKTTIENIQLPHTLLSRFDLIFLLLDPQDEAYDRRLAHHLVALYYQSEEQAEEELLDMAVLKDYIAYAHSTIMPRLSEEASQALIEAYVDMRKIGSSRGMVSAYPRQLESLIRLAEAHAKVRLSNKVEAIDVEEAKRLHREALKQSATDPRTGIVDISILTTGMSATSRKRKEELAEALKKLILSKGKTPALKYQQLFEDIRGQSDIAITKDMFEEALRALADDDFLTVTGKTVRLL

FLAG-tagged DNMT1 = FLAG-tagged DNMT1 (UniProt P26358)

Measured: binding

GFP-tagged full-length USP7 W165A (from UniProt Q93009 1-1102) (enzyme)
not listed: FLAG-tagged DNMT1
binds: all other assays above

GFP-tagged full-length USP7, wild type (from UniProt Q93009 1-1102) (enzyme)
binds: all assays above

— article PMC4624675
